The record followed here is patent US11939311B2, “Acid-labile surfactants” (Promega Corporation, priority 2019, dated 2024).

The subject of this series is acetone-precipitated protein pellets from lysed E. coli. The experiment in a line: Proteomic mass spectrometry of solubilized and trypsin-digested E. coli protein pellets. The conditions noted are these: 0.5% surfactant (RapiGest 0.1%), E. coli protein pellet, trypsin digest, LC-MS/MS, MASCOT and Scaffold.

With `CCCCCCCCCCCC1(C)OCC(COC(=O)NCCCS(=O)(=O)[O-])O1.[Na+]` (stereo not drawn) [JRW-1573, Sodium 3-((((2-methyl-2-undecyl-1,3-dioxolan-4-yl)methoxy)carbonyl)amino)propane-1-sulfonate], the “Peptide IDs” value is reported as 2668 and the “Protein IDs” value turned out to be 830.
The like results for `CCCCCCCC1(CCCCCCC)OCC(COC(=O)NCCCS(=O)(=O)[O-])O1.[Na+]` (stereo not drawn) [RBK-0170] were, in that order, 2111 and 882.
For `CCCCCCCCCCCC1(C)OCC(COCCCS(=O)(=O)[O-])O1.[Na+]` (stereo not drawn) [RapiGest], the “Peptide IDs” value worked out at 2628 and the “Protein IDs” value was determined as 747.
